From patent US20170305922A1, “CARM1 INHIBITORS AND USES THEREOF” (Epizyme, Inc., priority 2014, published 2017)

By UniProt entry, the sequences of proteins in these tests, tags left out. Residues count along the entry.
UniProt Q86X55, 1-585 isoform 1: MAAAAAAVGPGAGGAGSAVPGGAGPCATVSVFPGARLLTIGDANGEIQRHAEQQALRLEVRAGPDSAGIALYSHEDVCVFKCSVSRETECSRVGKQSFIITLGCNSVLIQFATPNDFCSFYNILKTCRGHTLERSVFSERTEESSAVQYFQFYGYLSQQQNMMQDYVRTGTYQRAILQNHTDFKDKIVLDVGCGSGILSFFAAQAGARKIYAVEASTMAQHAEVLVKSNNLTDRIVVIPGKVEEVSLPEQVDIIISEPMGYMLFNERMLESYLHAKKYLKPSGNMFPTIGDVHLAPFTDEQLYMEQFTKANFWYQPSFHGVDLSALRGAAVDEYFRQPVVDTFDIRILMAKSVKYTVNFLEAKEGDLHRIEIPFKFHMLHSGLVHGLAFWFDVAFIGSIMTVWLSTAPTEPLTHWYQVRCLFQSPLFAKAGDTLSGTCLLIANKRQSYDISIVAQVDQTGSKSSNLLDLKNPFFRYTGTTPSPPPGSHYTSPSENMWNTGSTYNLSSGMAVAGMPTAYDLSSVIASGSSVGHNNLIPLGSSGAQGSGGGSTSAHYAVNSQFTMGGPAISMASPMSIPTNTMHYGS

Legend:
Human CARM1 (PRMT4) = Human CARM1 (PRMT4) (Homo sapiens, UniProt Q86X55); test: CARM1 enzyme assay on peptide substrates (3H-SAM Flashplate); conditions: read-out: Biochem IC50; Biochemical assay; CARM1 0.25 nM, 3H-SAM 30 nM, peptide 250 nM
[1] = tested on: asymmetric di-methyl PABP1 in RKO cells; test: RKO methylation assay: In Cell Western (ICW) for asymmetric di-methyl PABP1 (PABP1me2a); conditions: read-out: Cellular IC50, Cellular-based (PABP1me2a) ICW (In Cell Western) assay, 48 hours
Source text: RKO adherent cells were purchased from ATCC (American Type Culture Collection), Manassas, Va., USA. DMEM/Glutamax medium, penicillin-streptomycin, heat inactivated fetal bovine serum, 0.05% trypsin and D-PBS were purchased from Life Technologies, Grand Island, N.Y., USA. Odyssey blocking buffer, 800CW goat anti-rabbit IgG (H+L) antibody, and Licor Odyssey infrared scanner were purchased from Licor Biosciences, Lincoln, Nebr., USA. Asymmetric di-methyl PABP1 antibody was purchased from Cell Signaling Technology, Danvers, Mass., USA. Methanol was purchased from VWR, Franklin, Mass., USA. 10% Tween 20 was purchased from KPL, Inc., Gaithersburg, Md., USA. Paraformaldehyde (PFA) was purchased from EM Sciences. DRAQ5 was purchased from Biostatus Limited, Leicestershire, UK.
RKO adherent cells were maintained in growth medium (DMEM/Glutamax medium supplemented with 10% v/v heat inactivated fetal bovine serum and 100 units/mL penicillin-streptomycin) and cultured at 37° C. under 5% CO2.
Cell treatment, In Cell Western (ICW) for detection of asymmetric di-methyl PABP1 and DNA content: RKO cells were seeded in assay medium at a concentration of 30,000 cells per mL to a poly-D-lysine coated 384 well culture plate (BD Biosciences 356697) with 50 μL per well. Compound (100 nL) from a 96-well source plate was added directly to 384 well cell plate. Plates were incubated at 37° C., 5% CO2 for 48 hours. After two days of incubation, plates were brought to room temperature outside of the incubator for ten minutes and blotted on paper towels to remove cell media. […]
First, the ratio for each well was determined by:
Each plate included fourteen control wells of DMSO only treatment (minimum inhibition) as well as fourteen control wells for maximum inhibition treated with 20 μM of a reference compound. The average of the ratio values for each control type was calculated and used to determine the percent […] for each test well in the plate. […]
Percent inhibition was determined and IC50 curves were generated using triplicate wells per concentration of compound.

SMILES | IC50 (Human CARM1 (PRMT4)) [nM] | IC50 [1] [nM]
CNC[C@@H](O)COc1ccc(Cl)c(-c2nc(-c3c(C)noc3C)c(C)c(N3CC4(CC=CCC4)C3)n2)c1 | 4.1 | 195
CNC[C@@H](O)COc1ccc(Cl)c(-c2nc(-c3c(C)noc3C)c(C)c(N3CC4(CC(C(=O)N5CCOCC5)C4)C3)n2)c1 | 7.4 | 239
CNC[C@@H](O)COc1ccc(Cl)c(-c2nc(-c3c(C)noc3C)c(C)c(N3Cc4cnc(OC(C)C)nc4C3)n2)c1 | 3.7 | 39

The structures given here were assigned with low confidence; some may be wrong.
